For the assay, the target named is FLAG-NOA36 (ZNF330/NOA36, Zinc Finger protein 330), expressed in HeLa cells (human) (UniProt Q9Y3S2). The experiment in a line: affinity purification with mass spectrometry; HeLa cells transfected with FLAG-NOA36 or the empty FLAG vector; lysis in 0.5% NP40, 150 mM NaCl, 10 mM Tris pH 7.5, 0.5 mM EDTA; anti-FLAG M2 magnetic beads; elution with 0.2 M glycine HCl pH 3.0; LC-MS; proteins common to the empty vector sample discarded.

Sequences of proteins named here, by UniProt entry; tags and fusion partners are left off.
UniProt Q9Y3S2: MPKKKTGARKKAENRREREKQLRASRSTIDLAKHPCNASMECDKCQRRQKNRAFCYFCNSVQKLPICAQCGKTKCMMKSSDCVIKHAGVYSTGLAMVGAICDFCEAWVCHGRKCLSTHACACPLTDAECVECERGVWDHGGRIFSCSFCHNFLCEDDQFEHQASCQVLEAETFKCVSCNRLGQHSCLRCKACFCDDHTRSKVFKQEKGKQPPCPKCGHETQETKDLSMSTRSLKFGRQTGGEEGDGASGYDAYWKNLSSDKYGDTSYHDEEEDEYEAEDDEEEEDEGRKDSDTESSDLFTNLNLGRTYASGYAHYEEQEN
UniProt P68104: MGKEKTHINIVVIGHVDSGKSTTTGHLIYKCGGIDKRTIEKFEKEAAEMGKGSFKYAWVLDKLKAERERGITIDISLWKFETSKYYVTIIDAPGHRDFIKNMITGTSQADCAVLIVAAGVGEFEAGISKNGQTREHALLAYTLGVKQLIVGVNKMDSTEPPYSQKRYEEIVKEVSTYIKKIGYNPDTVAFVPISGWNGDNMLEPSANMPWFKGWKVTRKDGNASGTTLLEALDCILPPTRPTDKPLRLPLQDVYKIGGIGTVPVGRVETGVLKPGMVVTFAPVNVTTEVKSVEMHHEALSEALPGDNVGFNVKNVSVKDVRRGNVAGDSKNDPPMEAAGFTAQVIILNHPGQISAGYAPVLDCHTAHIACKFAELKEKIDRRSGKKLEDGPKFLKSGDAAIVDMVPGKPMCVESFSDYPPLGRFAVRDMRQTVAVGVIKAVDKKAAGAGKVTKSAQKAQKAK
UniProt P16403: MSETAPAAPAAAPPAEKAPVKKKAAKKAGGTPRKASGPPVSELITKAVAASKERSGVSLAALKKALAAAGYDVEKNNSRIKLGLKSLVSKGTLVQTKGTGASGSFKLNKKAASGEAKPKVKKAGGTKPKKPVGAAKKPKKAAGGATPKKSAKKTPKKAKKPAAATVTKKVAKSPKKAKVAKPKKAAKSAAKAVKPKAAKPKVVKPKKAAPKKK
UniProt O14744: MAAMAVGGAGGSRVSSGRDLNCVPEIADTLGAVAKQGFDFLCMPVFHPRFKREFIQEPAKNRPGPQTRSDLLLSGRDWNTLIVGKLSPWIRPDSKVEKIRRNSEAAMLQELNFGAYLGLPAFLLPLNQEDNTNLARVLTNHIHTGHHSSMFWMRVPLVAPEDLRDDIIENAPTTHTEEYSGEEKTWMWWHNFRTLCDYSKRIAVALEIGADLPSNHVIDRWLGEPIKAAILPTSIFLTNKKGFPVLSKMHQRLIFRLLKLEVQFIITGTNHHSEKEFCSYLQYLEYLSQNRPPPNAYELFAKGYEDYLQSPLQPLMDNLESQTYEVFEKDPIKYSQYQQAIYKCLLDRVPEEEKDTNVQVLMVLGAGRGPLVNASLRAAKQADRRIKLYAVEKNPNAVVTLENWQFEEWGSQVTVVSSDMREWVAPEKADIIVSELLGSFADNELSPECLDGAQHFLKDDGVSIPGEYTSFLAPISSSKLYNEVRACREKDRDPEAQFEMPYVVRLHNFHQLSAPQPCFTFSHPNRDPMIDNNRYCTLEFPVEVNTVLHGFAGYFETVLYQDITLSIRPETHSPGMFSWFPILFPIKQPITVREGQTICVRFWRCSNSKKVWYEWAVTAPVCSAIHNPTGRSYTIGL

No constants are given. Whether binding was seen depends on the method and setting. In cells and extracts the contact can be indirect. Here binding means that the protein was enriched with, or labelled near, the bait; the list need not be complete.

Take “Elongation factor 1-α-1 (from UniProt P68104 1-462)”: the binding result is reported as “binds”.
For the substance “histone H1.2 (from UniProt P16403 1-213)”, the binding entry was “binds”.
On to “Protein arginine N-methyltransferase 5 (from UniProt O14744 1-637) (enzyme)”, for which the binding result is “binds”.
In the case of “HSPA8 (endogenous, HeLa) (from UniProt P11142-1 1-646)”, the binding result is reported as “binds”.
